# According to PubChem BioAssay AID2718 (Broad Institute, 2010):
# Chains of the proteins cited; added tags and fusions are not shown.
# UniProt O15379, whole entry: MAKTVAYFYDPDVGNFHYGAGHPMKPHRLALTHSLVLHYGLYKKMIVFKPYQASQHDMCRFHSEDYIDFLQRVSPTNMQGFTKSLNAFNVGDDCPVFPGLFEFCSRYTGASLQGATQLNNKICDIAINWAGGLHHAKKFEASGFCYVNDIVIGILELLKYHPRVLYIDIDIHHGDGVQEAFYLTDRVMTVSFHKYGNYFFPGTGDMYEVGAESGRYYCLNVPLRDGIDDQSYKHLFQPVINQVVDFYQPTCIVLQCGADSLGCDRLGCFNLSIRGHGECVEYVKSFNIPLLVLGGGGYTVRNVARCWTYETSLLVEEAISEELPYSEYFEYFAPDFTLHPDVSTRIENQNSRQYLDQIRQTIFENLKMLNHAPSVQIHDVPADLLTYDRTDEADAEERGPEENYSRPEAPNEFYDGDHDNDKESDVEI
# Out of some 320,000 compounds screened, about 480 (0.15%) were called active. Only results without a clear call are listed here; the source files them as inconclusive. No stated cut-off is given here; in the data, active means inhibition above about 26% (passing the limit was not always enough); inconclusive means no clear call, values can overlap the other calls.
# Target: Histone deacetylase 3 (Homo sapiens) (UniProt O15379)
# Assay: HDAC3 deacetylase inhibitors, primary screen, biochemical, fluorescence, cell-free homogeneous (AID 2718)
# Conditions: recombinant HDAC3, fluorogenic peptide/trypsin coupled, at 8.3 µM, hits give high values
row,Compound,inhibition
1,N#Cc1ccc(C(=O)NCC2(N3CCCCC3)CCCCC2)cc1,inconclusive: 11%
